Out of some 400,000 compounds screened, about 13,000 (3.2%) were called active. The inconclusive results got no clear call from the source; some entries with a clear call stand among them for comparison. Calls follow the shape of the dose curve; as a rule, active = well fitted cell-killing curve with a large enough effect; inconclusive = small, poorly fitted or top-dose-only effect, or effect the other way; inactive = flat fitted curve, though single readings scatter. A potency beside an inconclusive call is a rough fit, not a confirmed value.
assay: qHTS assay for MDR1-selective chemotherapeutics: Primary screen using the drug-selected MDR subline cells KB-V1; conditions: KB-V1 MDR cells viability, CellTiter-Glo, 72 h; activity change, negative = cytotoxicity: at 46.1 µM (top of the series); also: nearly all actives have a fitted effect of over 60% in size
Summary of the method: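 Drug-selected KB-V1 cells, grown in DMEM lacking phenol red with 10% FBS, receive compound titrations; after three days at 37 degrees C, surviving cell ATP is quantified by CellTiter-Glo luminescence and responses normalized and curve-fitted.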
% is scaled to controls: 0 for no effect and ±100 for the full control effect; potency is read from the fitted curve at half-maximal effect.

Structure (SMILES)	Potency	activity change, negative = cytotoxicity
CCOC(=O)CCNC(=O)Nc1ccc2nc(C)n(Cc3ccccc3Cl)c(=O)c2c1	inconclusive: 29.1 µM [cytotoxic, single point]	–
COc1ccc(CNC(=O)C2CCN(S(=O)(=O)c3c(C)n[nH]c3C)CC2)cc1	–	inactive: 0%
Cn1c(Cl)cnc1C1CC(=O)c2cc(Cl)ccc2O1 (centres undefined)	inconclusive: 7.31 µM [cytotoxic, partial curve, poor fit]	–
OC1(c2ccc(Br)cc2)CN(c2ccccc2)C2=[N+]1CCS2 (centres undefined)	inconclusive: 20.6 µM [cytotoxic, single point]	–
COc1cc(/C=N/NC(=O)c2ccc3ccccc3c2)ccc1Oc1ccc([N+](=O)[O-])cn1	inconclusive: 5.8 µM [cytotoxic, partial curve]	–
O=S(=O)(c1cccc(F)c1)N1CCC(c2nc3ccccc3s2)CC1	–	inactive: 0.0647%
COc1ccc(Cn2c(C(F)(F)F)ccc(C(N)=O)c2=O)cc1	inconclusive: 29.1 µM [rising, single point]	–
Cc1ccc(NC(=O)NCCCN2CCOCC2)cc1	inconclusive: 29.1 µM [rising, single point]	–
Cc1cccc2c(C(=O)N3CCN(c4ccccc4)CC3)cc(-c3ccncc3)nc12	active: 3.66 µM	–
CC1CCc2nc(NCCO)nc(C(F)(F)F)c2C1 (centres undefined)	inconclusive: 29.1 µM [cytotoxic, single point]	–
CCC1(C)Cc2ccccc2-c2nc(NCCO)n(-c3ccccc3)c(=O)c21 (centres undefined)	inconclusive: 11.6 µM [cytotoxic, partial curve, poor fit]	–
C=CCn1c(SCC(=O)N(CC)C2CCS(=O)(=O)C2)nc2cc(C(=O)O)ccc2c1=O (centres undefined)	–	inactive: 3.51%
Cc1cccc2cc(C3CC(c4ccco4)=NN3S(C)(=O)=O)c(Cl)nc12 (centres undefined)	inconclusive: 5.8 µM [cytotoxic, partial curve, poor fit]	–
C/C(=N/NC(=O)CNC(=O)c1ccco1)c1ccc(Cl)cc1	inconclusive: 0.366 µM [cytotoxic, full curve, poor fit]	–
OCCC1CN(Cc2ccc(-c3ccco3)cc2)CCN1Cc1ccsc1 (centres undefined)	inconclusive: 32.6 µM [cytotoxic, single point]	–
Cc1cc(C)n(CCc2nc3c4ccccc4nc(N4CCN(c5ccccc5F)CC4)n3n2)n1	inconclusive: 25.9 µM [rising, single point]	–
CC1COc2ccccc2N1C(=O)c1cccnc1Cl (centres undefined)	–	inconclusive: 0.533%
CSc1cccc(NC(=O)c2nnn(CC(=O)Nc3cc(C)cc(C)c3)c2N)c1	inconclusive: 0.58 µM [rising, full curve, poor fit]	–
CC(=O)N1c2ccc(S(=O)(=O)N3CCC(C(=O)Nc4cccc(C)c4)CC3)cc2CC1C (centres undefined)	–	inactive: -3.44%
COc1ccc(CCNc2ncnc3c2cnn3-c2cccc(Cl)c2)cc1	–	inactive: 1.34%
COc1ccccc1N1CCN(C(=O)c2cn(-c3ccccc3)nc2-c2cccnc2)CC1	–	inactive: -21.6%
CCCn1c(=NC(=O)CCS(=O)(=O)c2ccccc2)sc2cc(S(N)(=O)=O)ccc21	inconclusive: 32.6 µM [rising, single point]	–
CCOC(=O)N1CCN(C(=S)NC(=O)c2ccc(Br)cc2)CC1	inconclusive: 23.1 µM [cytotoxic, single point]	–

Structure (SMILES)	Potency	activity change, negative = cytotoxicity
COc1ccc(-c2cc(C(F)F)nc(-n3nc(C)cc3C)n2)cc1	active: 23.1 µM	–
Cc1nn(C)c(N)c1C(O)(c1nccn1C)C(F)(F)F (centres undefined)	inconclusive: 25.9 µM [rising, single point]	–
COc1ccc(C(=O)Nc2nc3ccccc3s2)cc1	inconclusive: 16.4 µM [cytotoxic, partial curve]	–
O=C(CSc1nnc(Cc2ccccc2)n1-c1ccc(F)cc1)N1CCOCC1	inconclusive: 16.4 µM [cytotoxic, single point]	–
O=C(Nc1ccc(Br)cn1)c1ccc([N+](=O)[O-])o1	–	inactive: -28.8%
Cc1cc(NC(=O)c2cccc([N+](=O)[O-])c2)n(-c2ccccc2)n1	inconclusive: 20.6 µM [cytotoxic, partial curve, poor fit]	–
COc1cc(/C=C/C(=O)Nc2cc(C(F)(F)F)ccc2Cl)cc(OC)c1OC	inconclusive: 29.1 µM [cytotoxic, single point]	–
Cc1ccc2ccccc2c1C(O)c1ncc(-c2cccc(F)c2)[nH]1 (centres undefined)	–	inactive: 2.16%
CCOC(=O)C1CCC(CN(Cc2ccc(Cl)cc2)S(=O)(=O)c2ccc(Br)cc2)CC1 (centres undefined)	–	inactive: 3.93%
CN1C(=O)C2(SCC(=O)N2c2cccc(C(F)(F)F)c2)c2ccccc21 (centres undefined)	inconclusive: 16.4 µM [cytotoxic, partial curve, poor fit]	–
O=C(C1CCN(S(=O)(=O)c2ccc(Br)s2)CC1)N1CCc2ccccc21	inconclusive: 20.6 µM [cytotoxic, partial curve]	–
CCOc1ccc(NC(=O)c2cn(C)c(=O)c3cc(OC)c(OC)cc23)cc1	inconclusive: 0.0052 µM [rising, full curve, poor fit]	–
CC(C(=O)NCCN1CCOCC1)(c1ccccc1)c1ccccc1	–	inactive: 10.6%
COc1ccc(Br)cc1/C=N/NC(=O)c1nc(-c2ccccc2)n2c1CCCCC2	–	inactive: -0.993%
Cc1ccc2[nH]c(=O)c(CN(Cc3ccco3)C(=O)CN3CCCC(C)C3)cc2c1 (centres undefined)	inconclusive: 10.3 µM [cytotoxic, partial curve, poor fit]	–
CCCn1nc(NC(=O)c2ccco2)c2cc3ccc(C)cc3nc21	–	inactive: 1.14%
CCCCCOC(=O)C1=C(C)NC(=O)NC1c1ccc(OC)cc1 (centres undefined)	inconclusive: 16.4 µM [cytotoxic, single point]	–
CCOc1ccc(NC(=O)CN(C)C(=O)c2cc(S(=O)(=O)N3CCCCCC3)ccc2OC)cc1OCC	inconclusive: 20.6 µM [rising, partial curve, poor fit]	–
CCOc1c(Cl)cc(/C=C/C(=O)N(CC)CC(=O)NCc2cccs2)cc1OC	inconclusive: 5.8 µM [cytotoxic, full curve]	–
COc1ccc(NC(=O)N(C)C[C@@H]2OCc3cnnn3CCCC(=O)N([C@H](C)CO)C[C@@H]2C)cc1	–	inactive: 11.4%
COCCCn1c(=N)c(C(=O)NCc2ccc3c(c2)OCO3)cc2c(=O)n3ccccc3nc21	inconclusive: 10.3 µM [cytotoxic, partial curve]	–
COc1ccc(CCC(=O)N2CCN(c3ccc(OC)cc3)CC2)cc1	–	inconclusive: 3.18%
CCN1CCN(C(=O)c2cc3cc4ccc(OC)cc4nc3s2)CC1	inconclusive: 14.6 µM [cytotoxic, partial curve]	–

Structure (SMILES)	Potency	activity change, negative = cytotoxicity
COc1ccccc1N1CCN(C(=O)c2cccc(S(=O)(=O)NCc3cccnc3)c2)CC1	inconclusive: 29.1 µM [rising, single point]	–
COc1ccccc1/C=N/NC(=O)c1csc(C)c1C	inconclusive: 11.6 µM [rising, partial curve]	–
CC(=O)Nc1cc(-c2cccnc2)cn2c(-c3cccc(C(F)(F)F)c3)cnc12	–	inactive: -24.5%
CCOC(=O)c1c(-c2ccc(Cl)cc2)c(C#N)c(=O)n(N)c1N	–	inactive: -8.49%
Cc1ccc2c(c1)[C@H]1[C@H](CO2)[C@H](c2ccccc2)[C@]2(C)C(=O)N(Cc3ccc(Cl)cc3)CC(=O)N12	inconclusive: 29.1 µM [cytotoxic, single point]	–
CC1(C)CC(=O)c2cc(-c3nc(-c4ccc(Cl)cc4)cs3)c(=O)n(-c3ccc(Cl)cc3)c2C1	–	inactive: 14.5%
O=C(C[C@@H]1C/C=C/CC[C@@H](Cc2ccc(F)cc2)C(=O)OC[C@H](Cc2ccccc2)NC1=O)N[C@H](CO)Cc1ccccc1	inconclusive: 29.1 µM [rising, single point]	–
COc1ccc(C(=O)CSc2nnc(CNC(=O)c3ccc(S(=O)(=O)N(C)C)cc3)o2)cc1	–	inactive: -12.6%
Cc1cccc2sc(NC(=O)Cn3c(C)csc3=O)nc12	inconclusive: 9.2 µM [cytotoxic, partial curve, poor fit]	–
CC1(CCCN2C(=O)c3ccccc3C2=O)OCCO1	–	inactive: 4.09%
CC(C)/C=C(/C(=O)c1ccc(Cl)cc1Cl)n1cncn1	–	inactive: 3.55%
CCNc1nc(NC(C)C)nc(N2CC(=O)N(CC(=O)OCC)C2=N)n1	inconclusive: 29.1 µM [cytotoxic, single point]	–
COCCN1Cc2c(sc(C)c2C)N(C(=O)c2ccccc2)C1	inconclusive: 6.51 µM [cytotoxic, partial curve, poor fit]	–
CCOC(=O)c1c[nH]c2nc(C)ccc2c1=O	inconclusive: 29.1 µM [rising, single point]	–
O=C(COc1ccc(F)cc1Cl)Nc1ccc(S(=O)(=O)Nc2nccs2)cc1	inconclusive: 18.4 µM [rising, partial curve, poor fit]	–
O=C(Cc1ccccc1)NCc1ccncc1	–	inactive: 9.83%
CC(=O)c1ccc(NC(=O)CSc2nc3[nH]c(=O)cc(O)c3s2)cc1	–	inactive: -1.66%
C=Cc1ccc(CSc2nc(-c3ccccc3Cl)nc3c2Cc2c(CO)cnc(C)c2O3)cc1	–	inactive: 1.8%
CCCn1c(N2CCN(CC(=O)Nc3ccc4c(c3)OCCO4)CC2)nc2ccccc21	inconclusive: 25.9 µM [cytotoxic, partial curve, poor fit]	–
CC1(C)CC(Cc2ccc(Cl)nc2)N(C(=O)OC(C)(C)C)C1 (centres undefined)	–	inactive: 5.85%
Cc1[nH]n(-c2ccc([N+](=O)[O-])cc2)c(=O)c1C=NCCN1CCN(C(=O)c2cccc(F)c2)CC1	active: 16.4 µM	–
O=C(Nc1nnc(SCc2ccccc2F)s1)c1ccco1	inconclusive: 13 µM [rising, partial curve, poor fit]	–
O=c1cc(-c2ccccc2)oc2cc(OCc3ccccc3)cc(O)c12	inconclusive: 10.3 µM [cytotoxic, partial curve, poor fit]	–

An excerpt of these results, in markdown:

| Structure (SMILES) | Potency | activity change, negative = cytotoxicity |
| --- | --- | --- |
| COc1cc(/C=N/NC(=O)c2ccc3ccccc3c2)ccc1Oc1ccc([N+](=O)[O-])cn1 | inconclusive: 5.8 µM [cytotoxic, partial curve] | – |
| OCCC1CN(Cc2ccc(-c3ccco3)cc2)CCN1Cc1ccsc1 (centres undefined) | inconclusive: 32.6 µM [cytotoxic, single point] | – |
| Cc1cc(C)n(CCc2nc3c4ccccc4nc(N4CCN(c5ccccc5F)CC4)n3n2)n1 | inconclusive: 25.9 µM [rising, single point] | – |
| COc1ccc(CCNc2ncnc3c2cnn3-c2cccc(Cl)c2)cc1 | – | inactive: 1.34% |
| COc1ccccc1N1CCN(C(=O)c2cn(-c3ccccc3)nc2-c2cccnc2)CC1 | – | inactive: -21.6% |
| CCCn1c(=NC(=O)CCS(=O)(=O)c2ccccc2)sc2cc(S(N)(=O)=O)ccc21 | inconclusive: 32.6 µM [rising, single point] | – |
| CCOC(=O)N1CCN(C(=S)NC(=O)c2ccc(Br)cc2)CC1 | inconclusive: 23.1 µM [cytotoxic, single point] | – |
| O=C(Nc1ccc(Br)cn1)c1ccc([N+](=O)[O-])o1 | – | inactive: -28.8% |
| Cc1cc(NC(=O)c2cccc([N+](=O)[O-])c2)n(-c2ccccc2)n1 | inconclusive: 20.6 µM [cytotoxic, partial curve, poor fit] | – |
| COc1cc(/C=C/C(=O)Nc2cc(C(F)(F)F)ccc2Cl)cc(OC)c1OC | inconclusive: 29.1 µM [cytotoxic, single point] | – |
| CCOC(=O)C1CCC(CN(Cc2ccc(Cl)cc2)S(=O)(=O)c2ccc(Br)cc2)CC1 (centres undefined) | – | inactive: 3.93% |
| CCCn1nc(NC(=O)c2ccco2)c2cc3ccc(C)cc3nc21 | – | inactive: 1.14% |
| COc1ccc(NC(=O)N(C)C[C@@H]2OCc3cnnn3CCCC(=O)N([C@H](C)CO)C[C@@H]2C)cc1 | – | inactive: 11.4% |
| CC(=O)Nc1cc(-c2cccnc2)cn2c(-c3cccc(C(F)(F)F)c3)cnc12 | – | inactive: -24.5% |
| Cc1ccc2c(c1)[C@H]1[C@H](CO2)[C@H](c2ccccc2)[C@]2(C)C(=O)N(Cc3ccc(Cl)cc3)CC(=O)N12 | inconclusive: 29.1 µM [cytotoxic, single point] | – |
| CC1(C)CC(=O)c2cc(-c3nc(-c4ccc(Cl)cc4)cs3)c(=O)n(-c3ccc(Cl)cc3)c2C1 | – | inactive: 14.5% |
| COCCN1Cc2c(sc(C)c2C)N(C(=O)c2ccccc2)C1 | inconclusive: 6.51 µM [cytotoxic, partial curve, poor fit] | – |
| CCOC(=O)c1c[nH]c2nc(C)ccc2c1=O | inconclusive: 29.1 µM [rising, single point] | – |
| CC(=O)c1ccc(NC(=O)CSc2nc3[nH]c(=O)cc(O)c3s2)cc1 | – | inactive: -1.66% |
| CC1(C)CC(Cc2ccc(Cl)nc2)N(C(=O)OC(C)(C)C)C1 (centres undefined) | – | inactive: 5.85% |

— PubChem BioAssay AID1347076 (National Center for Advancing Translational Sciences (NCATS), 2019)
